Assay results as given in PubChem BioAssay AID588497 (NMMLSC, 2011).
The whole screen tested about 360,000 compounds, of which about 780 (0.22%) were called active. The inconclusive results got no clear call from the source; some entries with a clear call stand among them for comparison. Cut-off read from the data, not from the text of the source: active = inhibition above about 35% (passing the limit was not always enough); inconclusive = no clear call, values can overlap the other calls.

system: Botulinum neurotoxin type F light chain protease (Clostridium botulinum); assay: BoNT/F light chain protease inhibitors, primary screen, biochemical, flow cytometry, MLPCN library (AID 588497); details: Multiplex microsphere protease cleavage assay, at 10 µM, hits give high values; note: plate controls were buffer without enzyme for full effect and enzyme alone for no effect

Row | Compound | inhibition
1 | Cc1onc(-c2ccccc2Cl)c1NC(=O)NCc1cccs1 | inconclusive: -1%
2 | CCC(=O)N/C(N)=N/c1nc2ccccc2o1 | inconclusive: -49.4%
3 | CCCc1cc2c(cc1NC(=O)Cc1ccccc1)OCO2 | inactive: -4.4%
4 | COC(=O)c1c(C)oc(C)c1S(=O)(=O)NCc1ccc(Cl)cc1Cl | inconclusive: -47%
5 | COc1ccc(C)cc1N(CC(=O)NCCSCc1cccc(Cl)c1)S(C)(=O)=O | inconclusive: 31.5%
6 | COc1ccc(NS(=O)(=O)c2ccc(C)cc2)c([N+](=O)[O-])c1 | inactive: -2.7%
7 | O=C(O)CCN1C(=O)/C(=C\c2cccc(Oc3ccccc3)c2)SC1=S | inconclusive: -8.6%
8 | O=[N+]([O-])c1ccc2nc(C(O)C(O)c3nc4ccc([N+](=O)[O-])cc4[nH]3)[nH]c2c1 (stereo not given) | inconclusive: -5.6%
9 | COc1ccc(-c2cc(-c3ccccc3)nc(-c3ccc4c(c3)NC(=O)CO4)c2)cc1 | inactive: 1.6%
10 | Cc1cc(C(=O)N/N=C\c2ccc(COc3ccc([N+](=O)[O-])cc3)o2)ccc1[N+](=O)[O-] | inconclusive: 8.3%
11 | CCOc1ccc(S(=O)(=O)N2CCN(C(=O)CCOc3ccccc3C)CC2)cc1 | inconclusive: -8.8%
12 | CCOC(=O)c1c(C)c2c(=O)[nH]cnc2n1-c1ccccc1 | inconclusive: 10%
13 | CCN(CC)C(=O)c1sc2nc(-c3ccccn3)[nH]c(=O)c2c1C | inactive: -2.2%
14 | CSc1ncnc2c1ncn2CCCN1CCN(c2ccccn2)CC1 | inactive: -9.5%
15 | CCCCCCCCc1nnc(N)s1 | inconclusive: -29.3%
16 | O=C1CC(c2ccco2)CC2=C1C(c1ccccc1)n1nc(C(F)(F)F)nc1N2 (stereo not given) | inactive: 9.3%
17 | N#C/C(C(N)=O)=C1/SC(Cc2ccc(F)cc2)C(=O)N1c1ccccc1 (stereo not given) | inconclusive: 3.1%
18 | C=CCN(c1ccc(C(=O)NCCSc2ccccc2)cc1)S(C)(=O)=O | inconclusive: 6.5%
19 | COc1ccc(C(=O)NN2C(=S)N(c3ccc(OC)cc3)C(=O)C2CC(N)=O)cc1 (stereo not given) | inconclusive: 23.1%
20 | COc1cccc(NC(=O)CN(C)C(=O)Cc2cccc3ccccc23)c1 | inconclusive: -7.6%
21 | COc1cccc(N2C(=O)CC(N3CCc4ccccc4C3)C2=O)c1 (stereo not given) | inconclusive: -148%
22 | O=C(NCc1ccco1)Nc1cccc([N+](=O)[O-])c1 | inconclusive: -9.8%
23 | CCOc1cccc(NC(=O)c2cnccc2C(F)(F)F)c1 | inconclusive: -49.4%

Row | Compound | inhibition
24 | O=C(N1CCOCC1)N1CCN(S(=O)(=O)c2ccc(Cl)cc2)CC1 | inconclusive: 5.6%
25 | COc1ccc(N2CCN(C(=O)c3nn(C)c4c3CS(=O)(=O)c3ccccc3-4)CC2)cc1 | inactive: 3.5%
26 | COc1ccc(N(C(=O)c2cccc([N+](=O)[O-])c2)S(=O)(=O)c2ccc3c(c2)n(C)c(=O)n3C)cc1 | inactive: -0.2%
27 | COCCNC(=O)Cn1cnc2c(cnn2-c2ccc(C)cc2)c1=O | inconclusive: 22.3%
28 | CCN(CC)C(=O)CSc1nnc(CNc2ccc(F)cc2)n1Cc1ccco1 | inconclusive: 23.1%
29 | CCOC(=O)/C(=N/Nc1ccc(OC)cc1)N1CCCc2ccccc21 | inconclusive: -26.3%
30 | N#CC1CCN(c2ncccc2[N+](=O)[O-])CC1 | inconclusive: -21.9%
31 | Cc1cc(C(=O)N/N=C/c2ccc3c(c2)OCO3)c2ccccc2n1 | inconclusive: 33.9%
32 | COc1ccc(N2C(=S)NC3CS(=O)(=O)CC32)cc1 (stereo not given) | inconclusive: 29.9%
33 | COc1ccc(-c2cn3nc(SCC(=O)NCC4CCCO4)ccc3n2)cc1 (stereo not given) | inactive: 7.1%
34 | CSc1nc(NCC(C)O)c2c3c(sc2n1)CN(C)CC3 (stereo not given) | inconclusive: -11.9%
35 | Cc1cccc(Nc2nc(C)cc(C)c2C#N)c1 | inconclusive: 12%
36 | FC(F)(F)c1cccnc1-n1cncn1 | inconclusive: -4.7%
37 | CC1(C(=O)NS(=O)(=O)c2cccc(OC(F)F)c2)CCN1C(=O)C/C=C/c1ccccc1 (stereo not given) | inactive: -10.2%
38 | O=C(O)C1C2C=CC(C2)C1C(=O)N1CCc2ccccc21 (stereo not given) | active: 38.6%
39 | Cn1c(Nc2ccccc2)cc(=O)n(C)c1=O | active: 35.2%
40 | CCOc1ccccc1NC(=O)C1COc2ccccc2O1 (stereo not given) | inconclusive: -18%
41 | Cc1ccccc1OCC(=O)N1CCCCCCC1 | inconclusive: -28.2%
42 | Cc1ccc(Cl)cc1OCC(=O)NCCOC(=O)Nc1sc(=S)n(C)c1C | inactive: -8.2%
43 | Cc1ccccc1NC(=O)c1cccc(NC(=O)c2c(C(=O)O)cccc2[N+](=O)[O-])c1 | inconclusive: 34.4%
44 | O=C1C2C3CC(C(Br)C3Br)C2C(=O)N1CC1CCCO1 (stereo not given) | inconclusive: -0.2%
45 | CCOc1ccc(CC(=O)NCCc2cnc[nH]2)cc1 | inconclusive: -9.7%
46 | COCCCNc1ncnc2c1sc1nc(-c3ccco3)c3c(c12)CC(C)(C)OC3 | inconclusive: -95.7%

Row | Compound | inhibition
47 | CN(CC(=O)NCc1ccc2c(c1)OCO2)S(=O)(=O)c1ccc(Br)s1 | inconclusive: -19%
48 | CCCc1ccc2ccc3ccccc3c2n1 | inactive: -1.8%
49 | Cc1ccc(C(=O)NCC(=O)N2CCc3ccccc3C2)cc1C | inconclusive: -10.2%
50 | Cc1cccc(CCN2C(N(C)C)=NC[C@@H]2CC(C)C)c1 | inactive: -6.7%
51 | Fc1ccccc1-c1n[nH]c(=S)n1/N=C/c1c[nH]c2ccccc12 | inconclusive: 6.7%
52 | CCn1c(=O)c(C(=O)NCc2ccc(Cl)cc2)c(O)c2ccccc21 | inconclusive: -19.6%
53 | O=C(NC1CCCCC1)N(CCN1CCOCC1)Cc1cc2cc3c(cc2[nH]c1=O)OCCO3 | inactive: -0.8%
54 | Cc1cc(C)cc(OCC(O)CN2CC(C)OC(C)C2)c1 (stereo not given) | inconclusive: -5.6%
55 | O=S(=O)(NCCC1CC1(Cl)Cl)c1ccccc1 (stereo not given) | inconclusive: 103%
56 | Cc1nnc(SCC(=O)Nc2ccc(N3CCOCC3)cc2)o1 | active: 42.4%
57 | COc1ccc(-c2nc3ccc(C)cn3c2NCc2ccccc2)cc1SC1CCCCC1 | inactive: -2.6%
58 | N#Cc1cnc2cc(-c3ccccc3)nn2c1N | inconclusive: -6.4%
59 | CC(C)CCNC(=O)c1ccc2c(c1)ncn2C1CCCCC1 | inactive: 5%
60 | O=C(Nc1ncc([N+](=O)[O-])s1)c1cccc([N+](=O)[O-])c1 | inconclusive: -3.7%
61 | Cc1ccc(/C=N/Nc2nncc(-c3ccccc3)n2)o1 | inactive: -1.8%
62 | CN(CC(=O)Nc1cccnc1)S(=O)(=O)c1cc(Cl)ccc1Cl | inactive: -7.4%
63 | CN1C(=O)[C@H]2[C@@H](c3ccccc3)N[C@]3(CCCN(Cc4ccc(F)cc4)C3=O)[C@H]2C1=O | inactive: -7.5%
64 | COc1ccccc1-c1nc2n(n1)C(c1cccs1)C(C(=O)Nc1cccnc1)=C(C)N2 (stereo not given) | inconclusive: -7.8%
65 | CCOC(=O)CC(=O)Nc1ccc(C(=O)OCC)cc1 | inconclusive: -31%
66 | O=[N+]([O-])c1ccccc1/C=C/CN1CCCC(CO)C1 (stereo not given) | inconclusive: -2.4%
67 | CCOC(=O)Cc1csc(NC(=O)Cc2ccc(Br)cc2)n1 | inconclusive: 34.1%
68 | CCOc1ccc(S(=O)(=O)Nc2nc3ccccc3nc2-n2ccc(=NC(=O)c3ccccc3C)cc2)cc1 | inconclusive: 40.8%
69 | O=[N+]([O-])c1ccccc1/C=N/N1CCN(Cc2ccccc2)CC1 | inactive: -5.2%

Row | Compound | inhibition
70 | O=C(NCCNc1nccc(C(F)(F)F)n1)c1cccc(C(F)(F)F)c1 | inconclusive: 4.3%
71 | COCCNc1cc(C)nc2c(-c3ccccc3OC)c(C)nn12 | inactive: -7.2%
72 | O=C(Nc1cccc(Cl)c1)N1CCCCCC1 | inconclusive: -23.5%
73 | COCCn1c(=S)[nH]c2cc(C(=O)NCCCN3CCOCC3)ccc2c1=O | inactive: -2%
74 | COc1ccc(OC)c(Nc2nc(N)nc(CCl)n2)c1 | inconclusive: 7.8%
75 | Cc1ccsc1/C=N/n1c(-c2cc(-c3ccccc3)n[nH]2)n[nH]c1=S | inconclusive: 73.9%
76 | CCc1cc(C(=O)NCC(c2ccc(OC)cc2)N2CCOCC2)sc1C (stereo not given) | inconclusive: -18.8%
77 | CS(=O)(=O)N(Cc1nnc(-c2cccs2)o1)c1ccc(Cl)cc1F | inconclusive: 12.7%
78 | O=C(NCc1ccccn1)C1CCCN(S(=O)(=O)c2cccc3nsnc23)C1 (stereo not given) | inconclusive: 16.2%
79 | CC1CC(C)CN(C(=O)Cn2c(=O)n(CCCCC(=O)NC3CCCC3)c(=O)c3ccccc32)C1 (stereo not given) | active: 36.9%
80 | O=C1/C(=C\c2ccccn2)SC(=S)N1c1ccc(S(=O)(=O)Nc2nccs2)cc1 | inconclusive: -42.6%
81 | CCOC(=O)C1CCCN(CC(=O)NC2=Nc3ccccc3N=C(C)C2c2ccccc2)C1 (stereo not given) | inconclusive: -436%
82 | CN(C)NC(=S)Nc1cccc(Cl)c1 | inconclusive: -4.8%
83 | CCOC(=O)CC(C)(C)/C(C)=N/Nc1ccc([N+](=O)[O-])cc1[N+](=O)[O-] | inactive: -6.8%
84 | CN(C(=O)CN1CCN(c2ccccc2F)CC1)C1CCCc2ccccc21 (stereo not given) | inactive: -4.9%
85 | CCCc1nc(SCC(N)=O)[nH]c(=O)c1CC | inactive: -0.3%
86 | CN(C)/C=C(/C(=O)c1ccc(Cl)c(Cl)c1)c1nnnn1-c1ccccc1 | inconclusive: -191%
87 | COc1ccc(NC(=O)C2(C)CCN2C(=O)c2ccccc2CCc2ccccc2)cc1OC (stereo not given) | inactive: 6.9%
88 | O=[N+]([O-])c1ccc(CNc2cccc(Cl)c2)s1 | inconclusive: -30.7%
89 | Cc1csc(NC(=O)c2ccc(S(=O)(=O)N3CCN(C)CC3)cc2)n1 | inactive: 1.1%
90 | CCCn1c(SCC(=O)Nc2nc3c(s2)CCCC3)nc2c1c(=O)n(C)c(=O)n2C | inactive: -1.6%

By substructure, those above with a COOH group (3)
Row | Compound | inhibition
7 | O=C(O)CCN1C(=O)/C(=C\c2cccc(Oc3ccccc3)c2)SC1=S | inconclusive: -8.6%
38 | O=C(O)C1C2C=CC(C2)C1C(=O)N1CCc2ccccc21 (stereo not given) | active: 38.6%
43 | Cc1ccccc1NC(=O)c1cccc(NC(=O)c2c(C(=O)O)cccc2[N+](=O)[O-])c1 | inconclusive: 34.4%
